Source: patent US20180051253A1
Results are given in words; binding and its absence hold for the method and conditions named. In cells and extracts the contact can be indirect. Some results given as binding are weak or reduced against the parent protein; the word gives no strength. Values belong to the molecule of their own block, whether it stands above or below them.

What was measured:
[1] = molecular target: T1, Nuclear Respiratory Factor 1 (NRF1) (UniProt Q16656); experiment: co-immunoprecipitation from 293T cells
T1 sequence (looked up): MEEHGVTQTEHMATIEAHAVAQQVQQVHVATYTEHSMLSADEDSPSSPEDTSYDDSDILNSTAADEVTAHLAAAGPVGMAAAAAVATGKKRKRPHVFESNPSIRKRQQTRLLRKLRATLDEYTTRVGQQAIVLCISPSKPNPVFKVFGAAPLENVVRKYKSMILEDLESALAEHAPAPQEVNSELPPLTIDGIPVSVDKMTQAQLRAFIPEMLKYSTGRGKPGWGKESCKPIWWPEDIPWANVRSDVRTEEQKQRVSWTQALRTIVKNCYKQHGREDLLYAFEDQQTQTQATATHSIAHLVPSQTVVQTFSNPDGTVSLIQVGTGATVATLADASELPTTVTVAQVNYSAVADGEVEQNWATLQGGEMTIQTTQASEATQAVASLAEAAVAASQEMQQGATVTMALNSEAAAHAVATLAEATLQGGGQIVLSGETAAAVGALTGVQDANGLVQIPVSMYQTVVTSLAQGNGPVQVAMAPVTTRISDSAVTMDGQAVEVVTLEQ

[2] = molecular target: T1, Nuclear Respiratory Factor 1 (NRF1); experiment: co-immunoprecipitation from 293T cells (SIRT7 IP, Protein A/G beads)

binding [1]: binds
Molecule: Flag-tagged SIRT7 (from UniProt Q9NRC8 1-400) (enzyme)

binding [2]: binds | binding [1]: binds
B1: endogenous SIRT7 (protein)
chain: MAAGGLSRSERKAAERVRRLREEQQRERLRQVSRILRKAAAERSAEEGRLLAESADLVTELQGRSRRREGLKRRQEEVCDDPEELRGKVRELASAVRNAKYLVVYTGAGISTAASIPDYRGPNGVWTLLQKGRSVSAADLSEAEPTLTHMSITRLHEQKLVQHVVSQNCDGLHLRSGLPRTAISELHGNMYIEVCTSCVPNREYVRVFDVTERTALHRHQTGRTCHKCGTQLRDTIVHFGERGTLGQPLNWEAATEAASRADTILCLGSSLKVLKKYPRLWCMTKPPSRRPKLYIVNLQWTPKDDWAALKLHGKCDDVMRLLMAELGLEIPAYSRWQDPIFSLATPLRAGEEGSHSRKSLCRSREEAPPGDRGAPLSSAPILGGWFGRGCTKRTKRKKVT
